No constants are given. Whether binding was seen depends on the method and setting. Some results given as binding are weak or reduced against the parent protein; the word gives no strength. For some assays here: Tags and fused reporters may be left off the sequences shown.
biological target: PDZ2 domain of PSD-95 (UniProt Q62108); experiment: free SIESDV peptide bound to eluted PSD-95 PDZ2, removed by buffer exchange

Amino acid sequences for entries named in this document (tags omitted). Residues count along the entry.
UniProt Q62108, residues 160-246: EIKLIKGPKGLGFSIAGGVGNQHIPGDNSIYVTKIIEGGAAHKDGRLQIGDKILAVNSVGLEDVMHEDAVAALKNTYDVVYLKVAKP

Binder	binding
SIESDV [SIESDV peptide]	binds

biological target: PDZ2 domain of PSD-95 (UniProt Q62108); experiment: affinity chromatography on PSD-95 PDZ2 resin, SIESDV peptide elution, SDS-PAGE

Binder	binding
IESDV (peptide, not shown: large carriers) [THX-IESDV]	binds
SSIESDV (peptide, not shown: large carriers) [THX-SSIESDV]	binds
SSIESDV (peptide, not shown: a dimerising Fc or GST) [GST-SSIESDV]	binds
SSIESDV (peptide, not shown: large carriers) [DasherGFP with C-terminal Type A PDZ affinity tag (seven C-terminal amino acids of the NR2B tail)]	binds
SIESDV (peptide, not shown: a dimerising Fc or GST) [GST-SIESDV]	binds
IESDV (peptide, not shown: a dimerising Fc or GST) [GST-IESDV]	binds
EKLSSIESDV (peptide, not shown: large carriers) [THX-…]	binds
SSIESDV (peptide, not shown: large carriers) [LacZ with C-terminal Type A PDZ affinity tag (seven C-terminal amino acids of the NR2B tail)]	binds
EKLSSIESDV (peptide, not shown: a dimerising Fc or GST) [GST-…]	binds
SIESDV (peptide, not shown: large carriers) [THX-SIESDV]	binds

Reference: US20140329706A1, “AFFINITY TAGS, AND RELATED AFFINITY LIGANDS, ENGINEERED PROTEINS, MODIFIED SUPPORTS, COMPOSITIONS, METHODS AND SYSTEMS” (CALIFORNIA INSTITUTE OF TECHNOLOGY, priority 2013, published 2014)
